Some of the results follow.
How the values were obtained:
Test in all cases: glycan array binding signal (z-score within array); higher = stronger binding
Conditions in all cases: glycan notation: IUPAC condensed, linker removed
[1] = biological target: Gal(b1-4)GlcNAc(b1-2)[Gal(b1-4)GlcNAc(b1-6)]Man(a1-6)[GlcNAc(b1-4)][Gal(b1-4)GlcNAc(b1-2)Man(a1-3)]Man(b1-4)GlcNAc(b1-4)GlcNAc
Procedure, shortened: (§1)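 Arrays were curated from the Consortium for Functional Glycomics database, 3228 in total, and kept only where the protein sequence was available. Binding is expressed as a within-array Z-score. This score was averaged across arrays of the same protein sequence at different concentrations or buffers and across linkers, and negative values can be read as non-binding.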

[2] = biological target: Gal(b1-4)GlcNAc(b1-2)[Gal(b1-4)GlcNAc(b1-6)]Man(a1-6)[GlcNAc(b1-4)][Gal(b1-4)GlcNAc(b1-2)[Gal(b1-4)GlcNAc(b1-4)]Man(a1-3)]Man(b1-4)GlcNAc(b1-4)[Fuc(a1-6)]GlcNAc
Procedure, shortened: as §1

[3] = biological target: Gal(b1-4)GlcNAc(b1-3)Gal(b1-3)GalNAc
Procedure, shortened: as §1

[4] = biological target: Gal(b1-4)GlcNAc(b1-3)Gal(b1-3)GlcNAc
Procedure, shortened: as §1

[5] = biological target: Gal(b1-4)GlcNAc(b1-3)Gal(b1-4)Glc
Procedure, shortened: as §1

[6] = biological target: Gal(b1-4)GlcNAc(b1-3)Gal(b1-4)GlcNAc
Procedure, shortened: as §1

[7] = biological target: Gal(b1-4)GlcNAc(b1-3)Gal(b1-4)GlcNAc(b1-2)Man(a1-3)[Gal(b1-4)GlcNAc(b1-3)Gal(b1-4)GlcNAc(b1-2)Man(a1-6)]Man(b1-4)GlcNAc(b1-4)GlcNAc
Procedure, shortened: as §1

[8] = biological target: Gal(b1-4)GlcNAc(b1-3)Gal(b1-4)GlcNAc(b1-2)Man(a1-3)[Gal(b1-4)GlcNAc(b1-3)Gal(b1-4)GlcNAc(b1-2)Man(a1-6)]Man(b1-4)GlcNAc(b1-4)[Fuc(a1-6)]GlcNAc
Procedure, shortened: as §1

[9] = biological target: Gal(b1-4)GlcNAc(b1-3)Gal(b1-4)GlcNAc(b1-2)[Gal(b1-4)GlcNAc(b1-3)Gal(b1-4)GlcNAc(b1-6)]Man(a1-6)[Gal(b1-4)GlcNAc(b1-3)Gal(b1-4)GlcNAc(b1-2)Man(a1-3)]Man(b1-4)GlcNAc(b1-4)GlcNAc
Procedure, shortened: as §1

[10] = biological target: Gal(b1-4)GlcNAc(b1-3)Gal(b1-4)GlcNAc(b1-2)[Gal(b1-4)GlcNAc(b1-3)Gal(b1-4)GlcNAc(b1-6)]Man(a1-6)[Gal(b1-4)GlcNAc(b1-3)Gal(b1-4)GlcNAc(b1-2)Man(a1-3)]Man(b1-4)GlcNAc(b1-4)[Fuc(a1-6)]GlcNAc
Procedure, shortened: as §1

[11] = biological target: Gal(b1-4)GlcNAc(b1-3)Gal(b1-4)GlcNAc(b1-3)Gal(b1-4)GlcNAc
Procedure, shortened: as §1

[12] = biological target: Gal(b1-4)GlcNAc(b1-3)Gal(b1-4)GlcNAc(b1-3)Gal(b1-4)GlcNAc(b1-2)Man(a1-3)[Gal(b1-4)GlcNAc(b1-3)Gal(b1-4)GlcNAc(b1-3)Gal(b1-4)GlcNAc(b1-2)Man(a1-6)]Man(b1-4)GlcNAc(b1-4)GlcNAc
Procedure, shortened: as §1

[13] = biological target: Gal(b1-4)GlcNAc(b1-3)Gal(b1-4)GlcNAc(b1-3)Gal(b1-4)GlcNAc(b1-2)Man(a1-3)[Gal(b1-4)GlcNAc(b1-3)Gal(b1-4)GlcNAc(b1-3)Gal(b1-4)GlcNAc(b1-2)Man(a1-6)]Man(b1-4)GlcNAc(b1-4)[Fuc(a1-6)]GlcNAc
Procedure, shortened: as §1

[14] = biological target: Gal(b1-4)GlcNAc(b1-3)Gal(b1-4)GlcNAc(b1-3)Gal(b1-4)GlcNAc(b1-2)[Gal(b1-4)GlcNAc(b1-3)Gal(b1-4)GlcNAc(b1-3)Gal(b1-4)GlcNAc(b1-6)]Man(a1-6)[Gal(b1-4)GlcNAc(b1-3)Gal(b1-4)GlcNAc(b1-3)Gal(b1-4)GlcNAc(b1-2)Man(a1-3)]Man(b1-4)GlcNAc(b1-4)[Fuc(a1-6)]GlcNAc
Procedure, shortened: as §1

[15] = biological target: Gal(b1-4)GlcNAc(b1-3)Gal(b1-4)GlcNAc(b1-3)Gal(b1-4)GlcNAc(b1-3)Gal(b1-4)GlcNAc(b1-2)Man(a1-3)[Gal(b1-4)GlcNAc(b1-3)Gal(b1-4)GlcNAc(b1-3)Gal(b1-4)GlcNAc(b1-3)Gal(b1-4)GlcNAc(b1-2)Man(a1-6)]Man(b1-4)GlcNAc(b1-4)GlcNAc
Procedure, shortened: as §1

[16] = biological target: Gal(b1-4)GlcNAc(b1-3)Gal(b1-4)GlcNAc(b1-3)Gal(b1-4)GlcNAc(b1-3)Gal(b1-4)GlcNAc(b1-2)Man(a1-3)[Gal(b1-4)GlcNAc(b1-3)Gal(b1-4)GlcNAc(b1-3)Gal(b1-4)GlcNAc(b1-3)Gal(b1-4)GlcNAc(b1-2)Man(a1-6)]Man(b1-4)GlcNAc(b1-4)[Fuc(a1-6)]GlcNAc
Procedure, shortened: as §1

[17] = biological target: Gal(b1-4)GlcNAc(b1-3)Gal(b1-4)GlcNAc(b1-3)Gal(b1-4)GlcNAc(b1-3)Gal(b1-4)GlcNAc(b1-2)[Gal(b1-4)GlcNAc(b1-3)Gal(b1-4)GlcNAc(b1-3)Gal(b1-4)GlcNAc(b1-3)Gal(b1-4)GlcNAc(b1-6)]Man(a1-6)[Gal(b1-4)GlcNAc(b1-3)Gal(b1-4)GlcNAc(b1-3)Gal(b1-4)GlcNAc(b1-3)Gal(b1-4)GlcNAc(b1-2)Man(a1-3)]Man(b1-4)GlcNAc(b1-4)[Fuc(a1-6)]GlcNAc
Procedure, shortened: as §1

[18] = biological target: Gal(b1-4)GlcNAc(b1-3)Gal(b1-4)GlcNAc(b1-3)Gal(b1-4)GlcNAc(b1-3)Gal(b1-4)GlcNAc(b1-3)Gal(b1-4)GlcNAc(b1-2)Man(a1-3)[Gal(b1-4)GlcNAc(b1-3)Gal(b1-4)GlcNAc(b1-3)Gal(b1-4)GlcNAc(b1-3)Gal(b1-4)GlcNAc(b1-3)Gal(b1-4)GlcNAc(b1-2)Man(a1-6)]Man(b1-4)GlcNAc(b1-4)GlcNAc
Procedure, shortened: as §1

[19] = biological target: Gal(b1-4)GlcNAc(b1-3)Gal(b1-4)GlcNAc(b1-3)Gal(b1-4)GlcNAc(b1-3)Gal(b1-4)GlcNAc(b1-3)Gal(b1-4)GlcNAc(b1-2)Man(a1-3)[Gal(b1-4)GlcNAc(b1-3)Gal(b1-4)GlcNAc(b1-3)Gal(b1-4)GlcNAc(b1-3)Gal(b1-4)GlcNAc(b1-3)Gal(b1-4)GlcNAc(b1-2)Man(a1-6)]Man(b1-4)GlcNAc(b1-4)[Fuc(a1-6)]GlcNAc
Procedure, shortened: as §1

[20] = biological target: Gal(b1-4)GlcNAc(b1-3)Gal(b1-4)GlcNAc(b1-3)Gal(b1-4)GlcNAc(b1-3)Gal(b1-4)GlcNAc(b1-3)Gal(b1-4)GlcNAc(b1-2)[Gal(b1-4)GlcNAc(b1-3)Gal(b1-4)GlcNAc(b1-3)Gal(b1-4)GlcNAc(b1-3)Gal(b1-4)GlcNAc(b1-3)Gal(b1-4)GlcNAc(b1-6)]Man(a1-6)[Gal(b1-4)GlcNAc(b1-3)Gal(b1-4)GlcNAc(b1-3)Gal(b1-4)GlcNAc(b1-3)Gal(b1-4)GlcNAc(b1-3)Gal(b1-4)GlcNAc(b1-2)Man(a1-3)]Man(b1-4)GlcNAc(b1-4)[Fuc(a1-6)]GlcNAc
Procedure, shortened: as §1

[21] = biological target: Gal(b1-4)GlcNAc(b1-3)Gal(b1-4)GlcNAc(b1-3)Gal(b1-4)GlcNAc(b1-3)Gal(b1-4)GlcNAc(b1-3)Gal(b1-4)GlcNAc(b1-3)Gal(b1-4)GlcNAc(b1-2)Man(a1-3)[Gal(b1-4)GlcNAc(b1-3)Gal(b1-4)GlcNAc(b1-3)Gal(b1-4)GlcNAc(b1-3)Gal(b1-4)GlcNAc(b1-3)Gal(b1-4)GlcNAc(b1-3)Gal(b1-4)GlcNAc(b1-2)Man(a1-6)]Man(b1-4)GlcNAc(b1-4)GlcNAc
Procedure, shortened: as §1

[22] = biological target: Gal(b1-4)GlcNAc(b1-3)Gal(b1-4)GlcNAc(b1-3)GalNAc
Procedure, shortened: as §1

[23] = biological target: Gal(b1-4)GlcNAc(b1-3)Gal(b1-4)GlcNAc(b1-3)[Gal(b1-4)GlcNAc(b1-3)Gal(b1-4)GlcNAc(b1-6)]GalNAc
Procedure, shortened: as §1

B1: LlpB (Pseudomonas fluorescens) (protein)
chain: MGSSHHHHHHSSGLVPRGSHMASSGFRIILFNSANNGTAILPPRNCLVAGQYLESPSKRYKLILEADGNLRLYDNGVPIWVADSSVPYTYVDNRPNTNLVTCFYMQGSAFLVDRVGSRTWATIGDWIDGAADRAYLQVQDDGNVVVVDGVPRWARFGFTPAALPNRGVFYPDHGTGPLPSFPVWSWTF
**Q.** For B1, which “glycan array binding signal (z-score)” value [1] is on record?
**A.** -0.05

**Q.** What about the “glycan array binding signal (z-score)” value [2] of the same binder?
**A.** -1.73

**Q.** And the “glycan array binding signal (z-score)” value [3]?
**A.** -0.092

**Q.** And the “glycan array binding signal (z-score)” value [4]?
**A.** -0.608

**Q.** What about the “glycan array binding signal (z-score)” value [5] of the same binder?
**A.** -0.591

**Q.** What about the “glycan array binding signal (z-score)” value [6] of the same binder?
**A.** -1.25

**Q.** What about the “glycan array binding signal (z-score)” value [7] of the same binder?
**A.** 0.719

**Q.** And the “glycan array binding signal (z-score)” value [8]?
**A.** 2.2

**Q.** What about the “glycan array binding signal (z-score)” value [9] of the same binder?
**A.** 1.42

**Q.** What about the “glycan array binding signal (z-score)” value [10] of the same binder?
**A.** 1.14

**Q.** What about the “glycan array binding signal (z-score)” value [11] of the same binder?
**A.** -0.221

**Q.** And the “glycan array binding signal (z-score)” value [12]?
**A.** 1.15

**Q.** What about the “glycan array binding signal (z-score)” value [13] of the same binder?
**A.** 2.11

**Q.** And the “glycan array binding signal (z-score)” value [14]?
**A.** -0.2

**Q.** What about the “glycan array binding signal (z-score)” value [15] of the same binder?
**A.** 0.173

**Q.** And the “glycan array binding signal (z-score)” value [16]?
**A.** 0.256

**Q.** And the “glycan array binding signal (z-score)” value [17]?
**A.** 0.773

**Q.** And the “glycan array binding signal (z-score)” value [18]?
**A.** -0.635

**Q.** What about the “glycan array binding signal (z-score)” value [19] of the same binder?
**A.** 0.04

**Q.** And the “glycan array binding signal (z-score)” value [20]?
**A.** 1.86

**Q.** And the “glycan array binding signal (z-score)” value [21]?
**A.** -0.541

**Q.** And the “glycan array binding signal (z-score)” value [22]?
**A.** 1.16

**Q.** And the “glycan array binding signal (z-score)” value [23]?
**A.** 2.19

Source: the supplement of paper PMC8728848
